Consider three molecules from publication PMC12125285.

Protein sequences, listed by entry. Tags and fused reporters are not part of them.
UniProt P15920: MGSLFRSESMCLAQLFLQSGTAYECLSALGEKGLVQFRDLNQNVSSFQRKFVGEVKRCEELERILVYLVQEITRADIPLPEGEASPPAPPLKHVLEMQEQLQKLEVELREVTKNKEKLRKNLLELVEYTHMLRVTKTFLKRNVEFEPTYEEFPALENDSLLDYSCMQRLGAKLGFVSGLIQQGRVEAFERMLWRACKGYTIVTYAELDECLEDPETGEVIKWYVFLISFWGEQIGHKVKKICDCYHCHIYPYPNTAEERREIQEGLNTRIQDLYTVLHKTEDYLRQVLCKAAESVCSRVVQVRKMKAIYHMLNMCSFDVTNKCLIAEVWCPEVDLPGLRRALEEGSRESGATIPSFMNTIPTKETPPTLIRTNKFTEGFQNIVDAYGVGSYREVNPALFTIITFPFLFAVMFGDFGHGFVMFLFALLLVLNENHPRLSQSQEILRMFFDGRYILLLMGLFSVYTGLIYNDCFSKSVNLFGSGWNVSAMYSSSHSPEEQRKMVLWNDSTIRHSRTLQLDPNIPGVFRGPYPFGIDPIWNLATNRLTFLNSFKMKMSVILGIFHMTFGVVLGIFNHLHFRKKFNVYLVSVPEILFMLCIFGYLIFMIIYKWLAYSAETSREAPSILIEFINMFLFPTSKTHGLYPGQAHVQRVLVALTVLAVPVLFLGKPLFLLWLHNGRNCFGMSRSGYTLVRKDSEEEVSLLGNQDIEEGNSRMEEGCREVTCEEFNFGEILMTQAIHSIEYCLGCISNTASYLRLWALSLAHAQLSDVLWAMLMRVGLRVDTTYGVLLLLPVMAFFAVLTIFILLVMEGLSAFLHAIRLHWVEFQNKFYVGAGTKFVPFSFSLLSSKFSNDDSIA

Results are given in words; binding and its absence hold for the method and conditions named. Binding seen in cells or lysates may run through a third protein. Some entries that bind do so weakly or less than the wild type. Tags and fused reporters may be left off the sequences shown.

For experiment [1], the target named is T1, FLAG-Rab27A(T23N) (UniProt Q9ERI2).
T1 sequence: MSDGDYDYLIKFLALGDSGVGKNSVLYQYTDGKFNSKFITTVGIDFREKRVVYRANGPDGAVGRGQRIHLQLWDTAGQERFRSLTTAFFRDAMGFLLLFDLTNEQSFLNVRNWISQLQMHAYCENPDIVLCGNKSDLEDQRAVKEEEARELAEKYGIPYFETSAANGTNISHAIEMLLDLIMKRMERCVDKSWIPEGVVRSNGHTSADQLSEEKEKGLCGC
Put plainly: co-IP; HEK293T post-nuclear supernatant centrifuged at 100,000 x g for 30 min into membrane and soluble fractions; immunoprecipitation buffer added; anti-FLAG precipitation; western blot.

Experiment [2] deals with T1, FLAG-Rab27A(T23N). Put plainly: co-IP; co-expression in HEK293T; lysate in 1% Triton X-100, 10% glycerol, 50 mM Tris-HCl pH 7.4, 150 mM NaCl, 1 mM DTT, 1 mM EDTA; anti-FLAG M2-agarose, 2 h at 4 °C; western blot. A general note: Immunoblotting shows a protein as a band on a membrane.
The target in experiment [3] is FLAG-tagged a2 subunit isoform of V-ATPase (UniProt P15920). The experiment is described as above.

As for “V5-tagged a2 subunit isoform of V-ATPase (from UniProt P15920 1-856)”, the binding result in the experiment with FLAG-Rab27A(T23N) [1] and with FLAG-Rab27A(T23N) [2] was “binds” throughout.

B1: V5-EPI64, the Rab27A GTPase-activating protein (GAP) (protein, UniProt P58802 1-500)
chain: MAKSSRENGPREPAAGGSLSGTRESLAQGPDAATADELSSLGSDSEANGFAERRIDKFGFIVGSQGAEGALEEVPLEVLRQRESKWLDMLNNWDKWMAKKHKKIRLRCQKGIPPSLRGRAWQYLSGGKVKLQQNPGKFDELDMSPGDPKWLDVIERDLHRQFPFHEMFVSRGGHGQQDLFRVLKAYTLYRPEEGYCQAQAPIAAVLLMHMPAEQAFWCLVQVCEKYLPGYYSEKLEAIQLDGEILFSLLQKVSPVAHKHLSRQKIDPLLYMTEWFMCAFARTLPWSSVLRVWDMFFCEGVKIIFRVGLVLLKHALGSPEKLKACQGQYETIEQLRSLSPKIMQEAFLVQEVIELPVTERQIEREHLIQLRRWQETRGELECRSLPRMHGAKAILDAEPGPRPALQPSPSIRLPPDAALLSSKAKPHKQAQKEQKRTKTSAQLDKSPGLSQATVVTAAGDACPPQGVSPKDPVPQDPTPQNLACHHSQESLTSQESEDTYL
On to B1, for which the binding entry in experiment [3] is “binds”.

B2: V5-fused Rab27A T23N (GDP-bound form) (protein, UniProt Q9ERI2 1-221)
chain: MSDGDYDYLIKFLALGDSGVGKNSVLYQYTDGKFNSKFITTVGIDFREKRVVYRANGPDGAVGRGQRIHLQLWDTAGQERFRSLTTAFFRDAMGFLLLFDLTNEQSFLNVRNWISQLQMHAYCENPDIVLCGNKSDLEDQRAVKEEEARELAEKYGIPYFETSAANGTNISHAIEMLLDLIMKRMERCVDKSWIPEGVVRSNGHTSADQLSEEKEKGLCGC
With B2, in experiment [3], the binding entry is given as “binds”.
